# Reference: patent US20250249110A1 (SICHUAN UNIVERSITY, priority 2016, published 2025)
# Test: peptide made by a vendor (peptide synthesis; Fmoc-Rink Amide MBHA Resin (0.36 mmol/g); HBTU/HOBt/DIEA)
# Settings: whole synthesis, scale of the general procedure 1.0 g resin (0.36 mmol/g)
substance,measurement,value
Chol-suc-VQWRIRVAVIRK-NH2,final HPLC purity,more than 95%
